Results as given in US11407812B2, “Targeted expression of chloride channels and methods of use thereof” (GOLEINI INC., priority 2015, dated 2022).

Details: male Sprague Dawley rat plasma, endogenous, n=6

With `NCC(=O)O` [Glycine] as the molecule, how does the “plasma glycine levels, average (mean±SD)” value read?
The value was 240.9 ± 45.2 µM.

And the “plasma glycine levels, range” value?
Its value is 184 to 307 µM.
